Assay results: PubChem BioAssay AID504648 (National Center for Advancing Translational Sciences (NCATS), 2011)
Out of some 390,000 compounds screened, about 610 (0.16%) were called active. The shares of active, inactive and inconclusive entries below differ from those in the screen. The call rests on the fitted dose curve; in most records, active means well fitted inhibition curve with a large enough effect; inconclusive means small, poorly fitted or top-dose-only effect, or effect the other way, or another doubt; inactive means no such curve, though single readings can be large or run the other way. A potency beside an inconclusive call is a rough fit, not a confirmed value.

Assay: Nrf2 qHTS screen for inhibitors: counterscreen for cytotoxicity
Settings: A549 ARE-Fluc cells, CellTiter-Fluor viability, 18-24 h; activity change, negative = cytotoxicity: at 46 µM (top of the series)
Outline: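 A549 ARE-Fluc cells in 5% FBS OPTI-MEM, 5000 cells/well, rested 2 h then exposed to compounds in concentration-response for 18-24 h at 37 °C. Viability by CellTiter-Fluor fluorescence (Ex 405/Em 525) after 30 min; luciferase luminescence (BugLite, 15 min, RT) read afterwards.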
On the % scale 0 is the no-effect control and ±100 the full control effect; potency means the concentration at half of the fitted maximal effect.

SMILES | Potency | activity change, negative = cytotoxicity
COc1ccc2cc(CN(Cc3ccco3)Cc3nnnn3C3CCCCC3)c(=O)[nH]c2c1 | inconclusive: 13 µM [falling, partial curve] | 
CCOC(=O)C(=O)Nc1nc(-c2ccc3c(c2)CCN3C(=O)C2CC2)c(C)s1 |  | inactive: 0.739%
CCOc1ncccc1C(=O)Nc1cc(S(=O)(=O)N2CCOCC2)ccc1OCC(F)(F)F |  | inactive: 2.87%
O=c1[nH]c(=S)[nH]cc1Oc1ccccc1 |  | inactive: 0.263%
CCOCCCNC(=O)c1cc(Sc2cccc(Cl)c2)nc2ccccc12 |  | inactive: -2.48%
C[C@@H]1CN([C@@H](C)CO)C(=O)c2cc(NS(=O)(=O)c3cccs3)ccc2O[C@H]1CN(C)Cc1ccc(C(F)(F)F)cc1 | inconclusive: 29.1 µM [falling, partial curve, poor fit] | 
Cc1ccc(Nc2sc(C(=O)c3ccccc3)c(N)c2C(=O)Nc2ccc(Cl)cc2)cc1 | inconclusive: 18.4 µM [falling, single point] | 
O=C(c1cc(COc2cccc3cnccc23)on1)N1CCCC(CCCO)C1 (configuration not stated) |  | inactive: -28.4%
N#Cc1ccc(CN2CCN(C(=O)c3ccc(S(=O)(=O)NCc4ccco4)cc3)CC2)cc1 | inconclusive: 7.31 µM [falling, partial curve] | 
O=C(c1ccc(Cl)cc1)C(CN1CCCCC1)c1ccccc1 (configuration not stated) |  | inactive: -0.261%
Cc1[nH]n(-c2ncc(-c3ccc(Cl)cc3)s2)c(=O)c1C(c1ccc(Cl)cc1)C(C#N)C#N (configuration not stated) |  | inactive: -15.6%
Clc1ccc(Cn2c(-c3cccnc3Cl)nc3ccccc32)c(Cl)c1 | inconclusive: 29.1 µM [falling, single point] | 
COc1ccccc1C/C(N)=N/OC(=O)COc1ccc(C)cc1 | inconclusive: 25.9 µM [activator, single point] | 
COc1ccc(C(=O)Nc2nc3n(n2)C(c2ccccc2)C=C(c2ccccc2)N3)cc1 (configuration not stated) | inconclusive: 29.1 µM [activator, single point] | 
O=C(CCS(=O)(=O)c1nc(-c2cccs2)cc(C(F)(F)F)n1)Nc1cc(Br)ccc1O | inconclusive: 29.1 µM [falling, single point] | 
c1ccc(-c2ccc(C3=Nn4c(nnc4-c4cc(-c5ccccc5)n[nH]4)SC3)cc2)cc1 | inconclusive: 29.1 µM [falling, single point] | 
CCN(CC)CCCN1C=C2C(=O)C(C)(OC(=O)CCC(=O)OC)C(=O)C(Br)=C2C=C1c1ccc(OC)cc1 (configuration not stated) | inconclusive: 23.1 µM [falling, partial curve, poor fit] | 
CCC(C(=O)NC1CCCC1)N(Cc1cccs1)C(=O)Cn1nnc(-c2ccc(OC)c(OC)c2)n1 (configuration not stated) |  | inactive: -3.38%
CCCn1c(SCc2nc(-c3ccccc3OCC)no2)nnc1-c1ccc(Cl)cc1 | inconclusive: 29.1 µM [falling, single point] | 
COc1ccc2c(c1OC)C(=O)OC2Nc1nc(-c2ccccc2)cs1 (configuration not stated) | active: 20.6 µM | 
Nc1nc2sc3c(c2cc1C(=O)NCC(=O)O)CCCC3 |  | inactive: 3.5%

Molecules from the list above with a furan ring, fused or not, in the order listed:
SMILES | Potency | activity change, negative = cytotoxicity
COc1ccc2cc(CN(Cc3ccco3)Cc3nnnn3C3CCCCC3)c(=O)[nH]c2c1 | inconclusive: 13 µM [falling, partial curve] | 
N#Cc1ccc(CN2CCN(C(=O)c3ccc(S(=O)(=O)NCc4ccco4)cc3)CC2)cc1 | inconclusive: 7.31 µM [falling, partial curve] | 

Next part:

SMILES | Potency | activity change, negative = cytotoxicity
Cc1ccc(NC(=O)Cn2c(=O)n(Cc3nc(C)no3)c(=O)c3cc4c(cc32)OCO4)c(C)c1 |  | inactive: 5.67%
CCN1CCN(c2ccc(S(=O)(=O)N3CCCCC3)cc2NC(=O)c2ccc(OC(F)F)cc2)CC1 | inconclusive: 16.4 µM [falling, partial curve] | 
O=C(/C=C/c1ccccc1)Nc1ccc(CN2CCOCC2)cc1 |  | inactive: 3.02%
Cn1nc(C(C)(C)C)cc1C(=O)NCc1ccc(N2CCCC2=O)cc1 | inconclusive: 7.31 µM [falling, partial curve, poor fit] | 
COc1ccc(/C=N/NC(=O)c2ccn[nH]2)cc1COc1ccc(Cl)cc1Cl | inconclusive: 29.1 µM [falling, partial curve, poor fit] | 
C[C@@H](C(=O)Nc1ccc2ccccc2c1)[C@H]1C[C@]1(C)[C@H](NS(=O)(=O)c1ccc(-c2ccccc2)cc1)c1ccccc1 |  | inactive: -1.19%
CC1CCN(c2nc3nonc3nc2Nc2ccc(F)cc2)CC1 | inconclusive: 16.4 µM [falling, partial curve] | 
CCOC(=O)c1cnn(-c2ccc(Cl)cc2)c1C1CCN(C(=O)OC(C)(C)C)CC1 | inconclusive: 25.9 µM [falling, partial curve, poor fit] | 
c1ccc(N2CCN(c3nc(NCc4ccco4)c4ccccc4n3)CC2)cc1 | inconclusive: 20.6 µM [falling, single point] | 
CCN1C(C(=O)c2ccccc2)=C(OC(=O)COc2ccc(OC)cc2)c2ccccc2S1(=O)=O | inconclusive: 23.1 µM [falling, single point] | 
S=C(NCC1CCCO1)N1CCN(c2nc(-c3ccc(Cl)cc3)cs2)CC1 (configuration not stated) | inconclusive: 20.6 µM [falling, partial curve, poor fit] | 
Cc1ccc(CNc2nc3c([nH]2)c(=O)n(C)c(=O)n3C)cc1 |  | inactive: -24%
COc1ccc(Cn2c(SCc3cc(C)ccc3C)nc3cc(OC)c(OC)cc3c2=N)cc1 | active: 18.4 µM | 
COc1ccc(/C=N/Nc2cc(N3CCCC3)nc(N3CCCC3)n2)cc1 | inconclusive: 25.9 µM [falling, single point] | 
COc1cc(CCC(=O)OCC(=O)Nc2cccc(S(=O)(=O)N(C)C)c2)cc(OC)c1OC |  | inactive: 7.3%
CC(C)Oc1cccc(C(=O)NC(=S)N2CCN(c3ccc(C(F)(F)F)cc3[N+](=O)[O-])CC2)c1 | inconclusive: 23.1 µM [falling, partial curve, poor fit] | 
CC1CCN(C(=O)c2ccc3c(c2)N(Cc2ccccc2)C(=O)c2ccccc2S3(=O)=O)CC1 | inconclusive: 29.1 µM [falling, single point] | 
O=C1/C(=C/c2cccs2)SC(=S)N1c1ccccc1 | inconclusive: 20.6 µM [falling, partial curve, poor fit] | 
O=C(Nc1cccc(C(F)(F)F)c1)c1cc(S(=O)(=O)N2CCCC2)c[nH]1 |  | inactive: 6.72%
O=[N+]([O-])c1ccc(Cl)c(/C=N/n2c(COc3ccccc3)n[nH]c2=S)c1 |  | inactive: -5.39%
COc1ccccc1-c1noc(-c2ccc(NCc3ccco3)c([N+](=O)[O-])c2)n1 |  | inactive: -2.87%
